Results: article PMC12862363, “AURKB-driven dissolution of CIZ1–RNA assemblies from the inactive X chromosome in mitosis” (Nucleic Acids Research, 2026)
These are yes or no findings as the source states them, for the method shown. In cells and extracts the contact can be indirect. These calls come from enrichment with a bait or labelling near it, and not all partners need be listed. For some assays here: Where a sequence is shown, tags or fusion partners need not be part of it.

Sequences of proteins named here, by UniProt entry; tags and fusion partners are left off.
UniProt O60264: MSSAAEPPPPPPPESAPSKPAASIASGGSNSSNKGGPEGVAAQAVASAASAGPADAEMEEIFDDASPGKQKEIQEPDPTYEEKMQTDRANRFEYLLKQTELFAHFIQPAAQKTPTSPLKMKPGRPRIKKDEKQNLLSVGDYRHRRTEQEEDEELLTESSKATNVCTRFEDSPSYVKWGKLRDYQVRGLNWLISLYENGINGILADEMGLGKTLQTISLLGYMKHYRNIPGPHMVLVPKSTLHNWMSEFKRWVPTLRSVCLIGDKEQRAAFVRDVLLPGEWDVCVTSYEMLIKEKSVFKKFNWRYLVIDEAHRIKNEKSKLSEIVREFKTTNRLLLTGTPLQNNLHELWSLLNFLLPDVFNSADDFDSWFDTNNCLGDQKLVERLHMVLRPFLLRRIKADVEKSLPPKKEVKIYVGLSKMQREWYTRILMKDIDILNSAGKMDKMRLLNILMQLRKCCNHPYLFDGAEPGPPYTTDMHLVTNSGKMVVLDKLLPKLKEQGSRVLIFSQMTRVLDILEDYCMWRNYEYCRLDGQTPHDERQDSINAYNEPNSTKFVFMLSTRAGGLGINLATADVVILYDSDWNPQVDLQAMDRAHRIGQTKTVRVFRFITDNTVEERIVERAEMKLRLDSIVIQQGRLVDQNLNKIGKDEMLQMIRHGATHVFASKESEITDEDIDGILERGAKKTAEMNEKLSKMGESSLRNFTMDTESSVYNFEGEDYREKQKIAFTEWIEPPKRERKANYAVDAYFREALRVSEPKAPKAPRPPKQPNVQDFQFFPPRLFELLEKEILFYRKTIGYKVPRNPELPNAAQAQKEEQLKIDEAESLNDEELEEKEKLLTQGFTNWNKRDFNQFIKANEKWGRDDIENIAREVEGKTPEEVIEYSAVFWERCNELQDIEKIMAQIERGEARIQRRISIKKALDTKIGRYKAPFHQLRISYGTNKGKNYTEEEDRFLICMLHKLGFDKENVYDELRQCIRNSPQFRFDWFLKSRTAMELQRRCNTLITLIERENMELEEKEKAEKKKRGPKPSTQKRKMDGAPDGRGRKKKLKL
UniProt Q14980: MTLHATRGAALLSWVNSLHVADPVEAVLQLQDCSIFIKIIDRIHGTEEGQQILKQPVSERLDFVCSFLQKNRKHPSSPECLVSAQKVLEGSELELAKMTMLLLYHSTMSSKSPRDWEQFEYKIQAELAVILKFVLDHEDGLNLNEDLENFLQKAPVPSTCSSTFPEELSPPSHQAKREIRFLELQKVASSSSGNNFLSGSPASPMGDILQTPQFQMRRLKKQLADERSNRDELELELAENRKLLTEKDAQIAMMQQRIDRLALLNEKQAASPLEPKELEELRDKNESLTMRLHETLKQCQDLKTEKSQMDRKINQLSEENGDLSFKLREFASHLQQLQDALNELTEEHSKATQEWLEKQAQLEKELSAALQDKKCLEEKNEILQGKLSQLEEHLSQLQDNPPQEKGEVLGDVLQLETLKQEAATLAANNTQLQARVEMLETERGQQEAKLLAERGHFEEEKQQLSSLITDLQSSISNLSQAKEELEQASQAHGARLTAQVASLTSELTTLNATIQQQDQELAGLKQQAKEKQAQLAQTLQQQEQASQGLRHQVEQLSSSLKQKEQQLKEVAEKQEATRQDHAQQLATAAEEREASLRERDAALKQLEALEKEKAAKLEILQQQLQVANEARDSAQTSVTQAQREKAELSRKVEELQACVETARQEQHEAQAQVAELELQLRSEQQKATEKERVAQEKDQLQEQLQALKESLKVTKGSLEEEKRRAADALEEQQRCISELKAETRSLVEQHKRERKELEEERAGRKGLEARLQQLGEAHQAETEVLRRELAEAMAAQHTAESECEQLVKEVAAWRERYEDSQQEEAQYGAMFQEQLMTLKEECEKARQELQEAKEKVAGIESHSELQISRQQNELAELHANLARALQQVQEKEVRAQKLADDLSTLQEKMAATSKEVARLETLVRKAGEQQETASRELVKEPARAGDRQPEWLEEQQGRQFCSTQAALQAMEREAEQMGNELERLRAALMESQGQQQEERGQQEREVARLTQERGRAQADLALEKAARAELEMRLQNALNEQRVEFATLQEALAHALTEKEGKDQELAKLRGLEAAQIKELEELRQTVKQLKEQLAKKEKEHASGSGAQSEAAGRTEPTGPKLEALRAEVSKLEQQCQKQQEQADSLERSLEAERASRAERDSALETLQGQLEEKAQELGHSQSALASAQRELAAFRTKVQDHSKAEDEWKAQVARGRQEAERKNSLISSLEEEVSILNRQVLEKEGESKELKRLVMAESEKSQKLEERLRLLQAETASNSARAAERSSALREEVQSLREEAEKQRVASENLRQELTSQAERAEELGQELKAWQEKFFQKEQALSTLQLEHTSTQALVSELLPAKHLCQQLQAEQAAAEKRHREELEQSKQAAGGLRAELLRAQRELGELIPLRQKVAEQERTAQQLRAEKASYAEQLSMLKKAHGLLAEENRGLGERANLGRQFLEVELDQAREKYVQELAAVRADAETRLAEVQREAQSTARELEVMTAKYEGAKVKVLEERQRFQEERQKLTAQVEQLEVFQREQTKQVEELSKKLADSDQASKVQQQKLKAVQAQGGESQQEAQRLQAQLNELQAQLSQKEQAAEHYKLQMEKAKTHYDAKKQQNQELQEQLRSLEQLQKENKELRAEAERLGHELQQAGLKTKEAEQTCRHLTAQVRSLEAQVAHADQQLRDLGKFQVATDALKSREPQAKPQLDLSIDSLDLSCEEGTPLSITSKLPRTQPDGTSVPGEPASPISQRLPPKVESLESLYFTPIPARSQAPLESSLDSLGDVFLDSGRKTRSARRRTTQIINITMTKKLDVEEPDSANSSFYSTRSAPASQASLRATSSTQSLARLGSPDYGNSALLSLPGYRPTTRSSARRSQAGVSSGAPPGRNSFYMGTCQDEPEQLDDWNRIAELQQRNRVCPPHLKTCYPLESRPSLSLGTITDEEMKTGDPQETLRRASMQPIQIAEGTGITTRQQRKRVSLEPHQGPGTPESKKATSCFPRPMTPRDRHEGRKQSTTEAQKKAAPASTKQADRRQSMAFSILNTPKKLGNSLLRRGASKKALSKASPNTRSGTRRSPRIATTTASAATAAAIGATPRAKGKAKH
UniProt Q9NWH9: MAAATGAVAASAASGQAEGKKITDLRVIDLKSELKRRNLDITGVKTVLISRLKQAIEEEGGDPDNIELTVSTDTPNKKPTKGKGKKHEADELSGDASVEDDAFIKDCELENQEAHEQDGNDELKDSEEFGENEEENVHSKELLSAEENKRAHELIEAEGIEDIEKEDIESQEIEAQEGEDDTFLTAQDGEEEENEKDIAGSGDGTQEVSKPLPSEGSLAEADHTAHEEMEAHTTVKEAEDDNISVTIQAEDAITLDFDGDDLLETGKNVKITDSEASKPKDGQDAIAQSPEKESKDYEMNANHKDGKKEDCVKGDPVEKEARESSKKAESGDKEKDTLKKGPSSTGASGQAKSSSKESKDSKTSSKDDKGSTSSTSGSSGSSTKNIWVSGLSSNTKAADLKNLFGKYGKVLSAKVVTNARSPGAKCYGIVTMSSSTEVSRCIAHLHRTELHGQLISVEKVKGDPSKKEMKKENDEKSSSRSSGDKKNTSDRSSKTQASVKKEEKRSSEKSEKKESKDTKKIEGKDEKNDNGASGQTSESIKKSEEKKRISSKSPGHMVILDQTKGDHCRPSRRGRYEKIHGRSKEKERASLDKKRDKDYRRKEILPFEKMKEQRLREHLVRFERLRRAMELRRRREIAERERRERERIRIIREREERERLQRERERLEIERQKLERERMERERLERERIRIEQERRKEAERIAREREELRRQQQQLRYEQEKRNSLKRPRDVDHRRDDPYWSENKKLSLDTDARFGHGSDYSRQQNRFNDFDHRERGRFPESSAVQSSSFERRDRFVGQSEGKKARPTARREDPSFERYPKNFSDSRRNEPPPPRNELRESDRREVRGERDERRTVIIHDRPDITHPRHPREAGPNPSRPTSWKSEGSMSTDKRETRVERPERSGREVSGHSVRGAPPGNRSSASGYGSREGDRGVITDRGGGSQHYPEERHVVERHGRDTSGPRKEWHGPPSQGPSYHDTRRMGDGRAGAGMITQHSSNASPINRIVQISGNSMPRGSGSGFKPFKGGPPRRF

T1: GST-C179WT (Human CIZ1) (human) (UniProt Q9ULV3)
T1 sequence: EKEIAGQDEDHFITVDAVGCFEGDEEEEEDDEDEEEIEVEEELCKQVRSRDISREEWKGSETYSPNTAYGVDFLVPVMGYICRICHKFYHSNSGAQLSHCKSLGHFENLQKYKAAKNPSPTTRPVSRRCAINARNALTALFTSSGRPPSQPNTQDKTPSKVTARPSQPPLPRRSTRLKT

B1: BAZ1B (protein, UniProt Q9UIG0 1-1483)
chain: MAPLLGRKPFPLVKPLPGEEPLFTIPHTQEAFRTREEYEARLERYSERIWTCKSTGSSQLTHKEAWEEEQEVAELLKEEFPAWYEKLVLEMVHHNTASLEKLVDTAWLEIMTKYAVGEECDFEVGKEKMLKVKIVKIHPLEKVDEEATEKKSDGACDSPSSDKENSSQIAQDHQKKETVVKEDEGRRESINDRARRSPRKLPTSLKKGERKWAPPKFLPHKYDVKLQNEDKIISNVPADSLIRTERPPNKEIVRYFIRHNALRAGTGENAPWVVEDELVKKYSLPSKFSDFLLDPYKYMTLNPSTKRKNTGSPDRKPSKKSKTDNSSLSSPLNPKLWCHVHLKKSLSGSPLKVKNSKNSKSPEEHLEEMMKMMSPNKLHTNFHIPKKGPPAKKPGKHSDKPLKAKGRSKGILNGQKSTGNSKSPKKGLKTPKTKMKQMTLLDMAKGTQKMTRAPRNSGGTPRTSSKPHKHLPPAALHLIAYYKENKDREDKRSALSCVISKTARLLSSEDRARLPEELRSLVQKRYELLEHKKRWASMSEEQRKEYLKKKREELKKKLKEKAKERREKEMLERLEKQKRYEDQELTGKNLPAFRLVDTPEGLPNTLFGDVAMVVEFLSCYSGLLLPDAQYPITAVSLMEALSADKGGFLYLNRVLVILLQTLLQDEIAEDYGELGMKLSEIPLTLHSVSELVRLCLRRSDVQEESEGSDTDDNKDSAAFEDNEVQDEFLEKLETSEFFELTSEEKLQILTALCHRILMTYSVQDHMETRQQMSAELWKERLAVLKEENDKKRAEKQKRKEMEAKNKENGKVENGLGKTDRKKEIVKFEPQVDTEAEDMISAVKSRRLLAIQAKKEREIQEREMKVKLERQAEEERIRKHKAAAEKAFQEGIAKAKLVMRRTPIGTDRNHNRYWLFSDEVPGLFIEKGWVHDSIDYRFNHHCKDHTVSGDEDYCPRSKKANLGKNASMNTQHGTATEVAVETTTPKQGQNLWFLCDSQKELDELLNCLHPQGIRESQLKERLEKRYQDIIHSIHLARKPNLGLKSCDGNQELLNFLRSDLIEVATRLQKGGLGYVEETSEFEARVISLEKLKDFGECVIALQASVIKKFLQGFMAPKQKRRKLQSEDSAKTEEVDEEKKMVEEAKVASALEKWKTAIREAQTFSRMHVLLGMLDACIKWDMSAENARCKVCRKKGEDDKLILCDECNKAFHLFCLRPALYEVPDGEWQCPACQPATARRNSRGRNYTEESASEDSEDDESDEEEEEEEEEEEEEDYEVAGLRLRPRKTIRGKHSVIPPAARSGRRPGKKPHSTRRSQPKAPPVDDAEVDELVLQTKRSSRRQSLELQKCEEILHKIVKYRFSWPFREPVTRDEAEDYYDVITHPMDFQTVQNKCSCGSYRSVQEFLTDMKQVFTNAEVYNCRGSHVLSCMVKTEQCLVALLHKHLPGHPYVRRKRKKFPDRLAEDEGDSEPEAVGQSRGRRQKK
B2: GNL3 (protein, UniProt Q9BVP2 1-549)
chain: MKRPKLKKASKRMTCHKRYKIQKKVREHHRKLRKEAKKRGHKKPRKDPGVPNSAPFKEALLREAELRKQRLEELKQQQKLDRQKELEKKRKLETNPDIKPSNVEPMEKEFGLCKTENKAKSGKQNSKKLYCQELKKVIEASDVVLEVLDARDPLGCRCPQVEEAIVQSGQKKLVLILNKSDLVPKENLESWLNYLKKELPTVVFRASTKPKDKGKITKRVKAKKNAAPFRSEVCFGKEGLWKLLGGFQETCSKAIRVGVIGFPNVGKSSIINSLKQEQMCNVGVSMGLTRSMQVVPLDKQITIIDSPSFIVSPLNSSSALALRSPASIEVVKPMEAASAILSQADARQVVLKYTVPGYRNSLEFFTVLAQRRGMHQKGGIPNVEGAAKLLWSEWTGASLAYYCHPPTSWTPPPYFNESIVVDMKSGFNLEELEKNNAQSIRAIKGPHLANSILFQSSGLTNGIIEEKDIHEELPKRKERKQEEREDDKDSDQETVDEEVDENSSGMFAAEETGEALSEETTAGEQSTRSFILDKIIEEDDAYDFSTDYV
B3: RRP1B (protein, UniProt Q14684 1-758)
chain: MAPAMQPAEIQFAQRLASSEKGIRDRAVKKLRQYISVKTQRETGGFSQEELLKIWKGLFYCMWVQDEPLLQEELANTIAQLVHAVNNSAAQHLFIQTFWQTMNREWKGIDRLRLDKYYMLIRLVLRQSFEVLKRNGWEESRIKVFLDVLMKEVLCPESQSPNGVRFHFIDIYLDELSKVGGKELLADQNLKFIDPFCKIAAKTKDHTLVQTIARGVFEAIVDQSPFVPEETMEEQKTKVGDGDLSAEEIPENEVSLRRAVSKKKTALGKNHSRKDGLSDERGRDDCGTFEDTGPLLQFDYKAVADRLLEMTSRKNTPHFNRKRLSKLIKKFQDLSEGSSISQLSFAEDISADEDDQILSQGKHKKKGNKLLEKTNLEKEKGSRVFCVEEEDSESSLQKRRRKKKKKHHLQPENPGPGGAAPSLEQNRGREPEASGLKALKARVAEPGAEATSSTGEESGSEHPPAVPMHNKRKRPRKKSPRAHREMLESAVLPPEDMSQSGPSGSHPQGPRGSPTGGAQLLKRKRKLGVVPVNGSGLSTPAWPPLQQEGPPTGPAEGANSHTTLPQRRRLQKKKAGPGSLELCGLPSQKTASLKKRKKMRVMSNLVEHNGVLESEAGQPQALGSSGTCSSLKKQKLRAESDFVKFDTPFLPKPLFFRRAKSSTATHPPGPAVQLNKTPSSSKKVTFGLNRNMTAEFKKTDKSILVSPTGPSRVAFDPEQKPLHGVLKTPTSSPASSPLVAKKPLTTTPRRRPRAMDFF
B4: matrin-3 (protein, UniProt P43243 1-847)
chain: MSKSFQQSSLSRDSQGHGRDLSAAGIGLLAAATQSLSMPASLGRMNQGTARLASLMNLGMSSSLNQQGAHSALSSASTSSHNLQSIFNIGSRGPLPLSSQHRGDADQASNILASFGLSARDLDELSRYPEDKITPENLPQILLQLKRRRTEEGPTLSYGRDGRSATREPPYRVPRDDWEEKRHFRRDSFDDRGPSLNPVLDYDHGSRSQESGYYDRMDYEDDRLRDGERCRDDSFFGETSHNYHKFDSEYERMGRGPGPLQERSLFEKKRGAPPSSNIEDFHGLLPKGYPHLCSICDLPVHSNKEWSQHINGASHSRRCQLLLEIYPEWNPDNDTGHTMGDPFMLQQSTNPAPGILGPPPPSFHLGGPAVGPRGNLGAGNGNLQGPRHMQKGRVETSRVVHIMDFQRGKNLRYQLLQLVEPFGVISNHLILNKINEAFIEMATTEDAQAAVDYYTTTPALVFGKPVRVHLSQKYKRIKKPEGKPDQKFDQKQELGRVIHLSNLPHSGYSDSAVLKLAEPYGKIKNYILMRMKSQAFIEMETREDAMAMVDHCLKKALWFQGRCVKVDLSEKYKKLVLRIPNRGIDLLKKDKSRKRSYSPDGKESPSDKKSKTDGSQKTESSTEGKEQEEKSGEDGEKDTKDDQTEQEPNMLLESEDELLVDEEEAAALLESGSSVGDETDLANLGDVASDGKKEPSDKAVKKDGSASAAAKKKLKKVDKIEELDQENEAALENGIKNEENTEPGAESSENADDPNKDTSENADGQSDENKDDYTIPDEYRIGPYQPNVPVGIDYVIPKTGFYCKLCSLFYTNEEVAKNTHCSSLPHYQKLKKFLNKLAEERRQKKET
B5: CCDC86 (protein, UniProt Q9H6F5 1-360)
chain: MDTPLRRSRRLGGLRPESPESLTSVSRTRRALVEFESNPEETREPGSPPSVQRAGLGSPERPPKTSPGSPRLQQGAGLESPQGQPEPGAASPQRQQDLHLESPQRQPEYSPESPRCQPKPSEEAPKCSQDQGVLASELAQNKEELTPGAPQHQLPPVPGSPEPYPGQQAPGPEPSQPLLELTPRAPGSPRGQHEPSKPPPAGETVTGGFGAKKRKGSSSQAPASKKLNKEELPVIPKGKPKSGRVWKDRSKKRFSQMLQDKPLRTSWQRKMKERQERKLAKDFARHLEEEKERRRQEKKQRRAENLKRRLENERKAEVVQVIRNPAKLKRAKKKQLRSIEKRDTLALLQKQPPQQPAAKI
B6: DDX24 (protein, UniProt Q9GZR7 1-859)
chain: MKLKDTKSRPKQSSCGKFQTKGIKVVGKWKEVKIDPNMFADGQMDDLVCFEELTDYQLVSPAKNPSSLFSKEAPKRKAQAVSEEEEEEEGKSSSPKKKIKLKKSKNVATEGTSTQKEFEVKDPELEAQGDDMVCDDPEAGEMTSENLVQTAPKKKKNKGKKGLEPSQSTAAKVPKKAKTWIPEVHDQKADVSAWKDLFVPRPVLRALSFLGFSAPTPIQALTLAPAIRDKLDILGAAETGSGKTLAFAIPMIHAVLQWQKRNAAPPPSNTEAPPGETRTEAGAETRSPGKAEAESDALPDDTVIESEALPSDIAAEARAKTGGTVSDQALLFGDDDAGEGPSSLIREKPVPKQNENEEENLDKEQTGNLKQELDDKSATCKAYPKRPLLGLVLTPTRELAVQVKQHIDAVARFTGIKTAILVGGMSTQKQQRMLNRRPEIVVATPGRLWELIKEKHYHLRNLRQLRCLVVDEADRMVEKGHFAELSQLLEMLNDSQYNPKRQTLVFSATLTLVHQAPARILHKKHTKKMDKTAKLDLLMQKIGMRGKPKVIDLTRNEATVETLTETKIHCETDEKDFYLYYFLMQYPGRSLVFANSISCIKRLSGLLKVLDIMPLTLHACMHQKQRLRNLEQFARLEDCVLLATDVAARGLDIPKVQHVIHYQVPRTSEIYVHRSGRTARATNEGLSLMLIGPEDVINFKKIYKTLKKDEDIPLFPVQTKYMDVVKERIRLARQIEKSEYRNFQACLHNSWIEQAAAALEIELEEDMYKGGKADQQEERRRQKQMKVLKKELRHLLSQPLFTESQKTKYPTQSGKPPLLVSAPSKSESALSCLSKQKKKKTKKPKEPQPEQPQPSTSAN
B7: SRSF2 (protein, UniProt Q01130 1-221)
chain: MSYGRPPPDVEGMTSLKVDNLTYRTSPDTLRRVFEKYGRVGDVYIPRDRYTKESRGFAFVRFHDKRDAEDAMDAMDGAVLDGRELRVQMARYGRPPDSHHSRRGPPPRRYGGGGYGRRSRSPRRRRRSRSRSRSRSRSRSRSRYSRSKSRSRTRSRSRSTSKSRSARRSKSKSSSVSRSRSRSRSRSRSRSPPPVSKRESKSRSRSKSPPKSPEEEGAVSS

Tests used:
[1] = biological target: T1, GST-C179WT (Human CIZ1) (human); test: affinity purification with mass spectrometry; GST-CIZ1 fragment on Glutathione Sepharose 4B beads (prepared with Benzonase and RNase); HeLa nuclear extract (400 and 800 mM NaCl fractions pooled, diluted to 135 mM NaCl), 2 h at 4°C, five washes in isotonic buffer; on-bead trypsin digest, label-free MS; partner: >=2-fold over GST control, q <= 0.05; studies A, B (with C179Δtail) and C (with C179DDD), n = 4 replicates each; only the target purified
[2] = biological target: GST-C179Δtail (Human CIZ1) (human) (UniProt Q9ULV3); test: as above

Molecule | binding [1] | binding [2]
SMARCA5 (from UniProt O60264 1-1052) | binds | binds
NUMA1 (from UniProt Q14980 1-2115) | binds | binds
HNRNPK (from UniProt P61978 1-463) | binds | 
SLTM (SAFB-like transcription modulator) (from UniProt Q9NWH9 1-1034) | binds | binds
B1 | binds | binds
B2 | binds | binds
B3 | binds | binds
B4 | binds | 
B5 | binds | binds
B6 | binds | binds
B7 | binds | binds
